# Some of the results follow.
# How the values were obtained:
# Test in all cases: glycan array binding signal (z-score within array); higher = stronger binding
# Conditions in all cases: glycan notation: IUPAC condensed, linker removed
# Gal6S(b1-4)Glc6S = target: Gal6S(b1-4)Glc6S
# Outline: (§1)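 Glycan array data came from 3228 arrays in the Consortium for Functional Glycomics database, and only arrays with an available protein sequence were kept. Glycan names were put into IUPAC-condensed notation, and columns mapping to the same glycan were averaged. The binding signal is a within-array Z-score, averaged across arrays of one protein sequence run at different concentrations or buffers and across linkers. A negative Z-score can be read as non-binding.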
# Gal6S(b1-4)GlcNAc = target: Gal6S(b1-4)GlcNAc
# Outline: as §1
# Gal6S(b1-4)GlcNAc6S = target: Gal6S(b1-4)GlcNAc6S
# Outline: as §1
# GalNAc(a1-3)Gal = target: GalNAc(a1-3)Gal
# Outline: as §1
# GalNAc(a1-3)GalNAc = target: GalNAc(a1-3)GalNAc
# Outline: as §1
# [1] = target: GalNAc(a1-3)GalNAc(b1-3)Gal(a1-4)Gal(b1-4)Glc
# Outline: as §1
# [2] = target: GalNAc(a1-3)GalNAc(b1-3)Gal(a1-4)Gal(b1-4)GlcNAc
# Outline: as §1
# GalNAc(b1-3)Gal = target: GalNAc(b1-3)Gal
# Outline: as §1
# [3] = target: GalNAc(b1-3)Gal(a1-4)Gal(b1-4)GlcNAc
# Outline: as §1
# [4] = target: GalNAc(b1-3)Gal(a1-4)Gal(b1-4)GlcNAc(b1-3)Gal(b1-4)Glc
# Outline: as §1
# [5] = target: GalNAc(b1-3)Gal(a1-6)Gal(b1-4)Glc
# Outline: as §1
# GalNAc(b1-3)GalNAc = target: GalNAc(b1-3)GalNAc
# Outline: as §1
# GalNAc(b1-3)GlcNAc = target: GalNAc(b1-3)GlcNAc
# Outline: as §1
# GalNAc(b1-4)Gal(b1-4)Glc = target: GalNAc(b1-4)Gal(b1-4)Glc
# Outline: as §1
# GalNAc(b1-4)GlcNAc = target: GalNAc(b1-4)GlcNAc
# Outline: as §1
# [6] = target: GalNAc(b1-4)GlcNAc(b1-2)Man
# Outline: as §1
# [7] = target: GalNAc(b1-4)GlcNAc(b1-2)Man(a1-3)[GalNAc(b1-4)GlcNAc(b1-2)Man(a1-6)]Man(b1-4)GlcNAc(b1-4)GlcNAc
# Outline: as §1
# [8] = target: GalNAc(b1-4)GlcNAc(b1-3)GalNAc(b1-4)GlcNAc
# Outline: as §1
# GalNAc(b1-4)GlcNAc6S = target: GalNAc(b1-4)GlcNAc6S
# Outline: as §1
# GalNAc(b1-6)GalNAc = target: GalNAc(b1-6)GalNAc
# Outline: as §1
# GalNAc3S(b1-4)GlcNAc = target: GalNAc3S(b1-4)GlcNAc
# Outline: as §1
# GalNAc3S(b1-4)GlcNAc3S = target: GalNAc3S(b1-4)GlcNAc3S
# Outline: as §1
# [9] = target: GalNAc3S(b1-4)[Fuc(a1-3)]GlcNAc
# Outline: as §1
# GalNAc4S6S(b1-4)GlcNAc = target: GalNAc4S6S(b1-4)GlcNAc
# Outline: as §1
# GalNAc6S(b1-4)GlcNAc = target: GalNAc6S(b1-4)GlcNAc
# Outline: as §1
# Glc(a1-4)Glc = target: Glc(a1-4)Glc
# Outline: as §1
# [10] = target: Glc(a1-4)Glc(a1-4)Glc(a1-4)Glc
# Outline: as §1
# Glc(a1-6)Glc(a1-6)Glc = target: Glc(a1-6)Glc(a1-6)Glc
# Outline: as §1
# [11] = target: Glc(a1-6)Glc(a1-6)Glc(a1-6)Glc
# Outline: as §1
# Glc(b1-4)Glc = target: Glc(b1-4)Glc
# Outline: as §1
# Glc(b1-6)Glc = target: Glc(b1-6)Glc
# Outline: as §1
# GlcA(b1-3)Gal = target: GlcA(b1-3)Gal
# Outline: as §1
# GlcA(b1-3)GlcNAc = target: GlcA(b1-3)GlcNAc
# Outline: as §1
# GlcA(b1-6)Gal = target: GlcA(b1-6)Gal
# Outline: as §1
# [12] = target: GlcA3S(b1-3)Gal(b1-4)GlcNAc(b1-2)Man
# Outline: as §1
# [13] = target: GlcA3S(b1-3)Gal(b1-4)GlcNAc(b1-3)Gal(b1-4)Glc
# Outline: as §1
# [14] = target: GlcNAc(a1-3)Gal(b1-4)GlcNAc
# Outline: as §1
binder,measurement,setting,value
PX14375A-pdi-503-28-503 (Parabacteroides distasonis) (protein) PLGSPEAGDISEERQAFLRLTAVYSVMKDFRYTWSMQCFGDVLSNDATYSGSSNDAQTFTLLENYQYQADHTEILNKYRYSYQCINKANLFIRDMEMADDALFSKYDKEQMIGEAKFIRAYTYFELVKTFGGVPCYTGVLDLDHERLGRASVEEIYSVIEQDLNDAVSVLPKKSEVANYESSYAGRITKGAAIAMQTRIYLYEKKYDEVKKAFEKFQNECGGEYSLVAPEDYTWQFSLDGEHCSSSILEVNMYNSSTQSSYNVNNGNRHVLMSMPRNMTIGFGCAQPTQALADAYDAEGDVIRKKTTLLSTEEAIEIETAAKGDVAPVTDDRTGWYNRKLYLAPGQREENRGNNQPTNLRLIRLAEVYLNYAEACYFSGDIANAQKYLNEVRSHVNLAPKNHTGSQLFEDIMNERHLEFGMEGFRFFDVVRVGWGEKVFNGTKKAEFGAKTPFSAGAEVLPIPQTEIDISDGLITN,glycan array binding signal (z-score),Gal6S(b1-4)Glc6S,-0.419
same,glycan array binding signal (z-score),Gal6S(b1-4)GlcNAc,0.041
same,glycan array binding signal (z-score),Gal6S(b1-4)GlcNAc6S,0.069
same,glycan array binding signal (z-score),GalNAc(a1-3)Gal,-0.64
same,glycan array binding signal (z-score),GalNAc(a1-3)GalNAc,0.209
same,glycan array binding signal (z-score),[1],-0.395
same,glycan array binding signal (z-score),[2],-0.333
same,glycan array binding signal (z-score),GalNAc(b1-3)Gal,0.566
same,glycan array binding signal (z-score),[3],-0.93
same,glycan array binding signal (z-score),[4],-0.048
same,glycan array binding signal (z-score),[5],-0.564
same,glycan array binding signal (z-score),GalNAc(b1-3)GalNAc,-0.304
same,glycan array binding signal (z-score),GalNAc(b1-3)GlcNAc,-0.667
same,glycan array binding signal (z-score),GalNAc(b1-4)Gal(b1-4)Glc,0.328
same,glycan array binding signal (z-score),GalNAc(b1-4)GlcNAc,-0.391
same,glycan array binding signal (z-score),[6],-0.047
same,glycan array binding signal (z-score),[7],0.156
same,glycan array binding signal (z-score),[8],-0.282
same,glycan array binding signal (z-score),GalNAc(b1-4)GlcNAc6S,0.201
same,glycan array binding signal (z-score),GalNAc(b1-6)GalNAc,0.361
same,glycan array binding signal (z-score),GalNAc3S(b1-4)GlcNAc,-1
same,glycan array binding signal (z-score),GalNAc3S(b1-4)GlcNAc3S,-0.318
same,glycan array binding signal (z-score),[9],0.029
same,glycan array binding signal (z-score),GalNAc4S6S(b1-4)GlcNAc,0.215
same,glycan array binding signal (z-score),GalNAc6S(b1-4)GlcNAc,-0.507
same,glycan array binding signal (z-score),Glc(a1-4)Glc,-0.369
same,glycan array binding signal (z-score),[10],-0.695
same,glycan array binding signal (z-score),Glc(a1-6)Glc(a1-6)Glc,-0.184
same,glycan array binding signal (z-score),[11],-0.04
same,glycan array binding signal (z-score),Glc(b1-4)Glc,-0.675
same,glycan array binding signal (z-score),Glc(b1-6)Glc,-0.442
same,glycan array binding signal (z-score),GlcA(b1-3)Gal,-0.131
same,glycan array binding signal (z-score),GlcA(b1-3)GlcNAc,0.966
same,glycan array binding signal (z-score),GlcA(b1-6)Gal,0.643
same,glycan array binding signal (z-score),[12],0.254
same,glycan array binding signal (z-score),[13],-0.48
same,glycan array binding signal (z-score),[14],0.178

# Retrieved one by one from above, two records:
binder,measurement,setting,value
PX14375A-pdi-503-28-503 (Parabacteroides distasonis) (protein) PLGSPEAGDISEERQAFLRLTAVYSVMKDFRYTWSMQCFGDVLSNDATYSGSSNDAQTFTLLENYQYQADHTEILNKYRYSYQCINKANLFIRDMEMADDALFSKYDKEQMIGEAKFIRAYTYFELVKTFGGVPCYTGVLDLDHERLGRASVEEIYSVIEQDLNDAVSVLPKKSEVANYESSYAGRITKGAAIAMQTRIYLYEKKYDEVKKAFEKFQNECGGEYSLVAPEDYTWQFSLDGEHCSSSILEVNMYNSSTQSSYNVNNGNRHVLMSMPRNMTIGFGCAQPTQALADAYDAEGDVIRKKTTLLSTEEAIEIETAAKGDVAPVTDDRTGWYNRKLYLAPGQREENRGNNQPTNLRLIRLAEVYLNYAEACYFSGDIANAQKYLNEVRSHVNLAPKNHTGSQLFEDIMNERHLEFGMEGFRFFDVVRVGWGEKVFNGTKKAEFGAKTPFSAGAEVLPIPQTEIDISDGLITN,glycan array binding signal (z-score),GalNAc4S6S(b1-4)GlcNAc,0.215
same,glycan array binding signal (z-score),[4],-0.048

# — the supplement of paper PMC8728848
